Measured values: paper PMC10163288
Some of the results follow.

B1: il2ra_site2_2erj_sap_31_mot_HHH_b1_07829_000000169_0001_1_18_H_._HHH_b1_01129_af2_0001_0000100004_0000001_0_0001_af2pred_0001_1_af2pred_swapped (protein)
chain: SSSSSDEEIRERVEELLEEAERIKDPKEALKLLQEAAQLALELDDPELIELVLEVARRASSSSSS
B2: il2ra_site1_2b5i_normal_mot_HHH_b1_02271_000000068_0001_1_16_H_._HHH_b1_08003_0001_0001400040_0000001_0_af2pred_dldesign_0_af2pred (protein)
chain: SSSSSDRRARLEAALAEAERLAAAGKRREALKRLDELKKEADELDDDELADRIEALAKEISSSSS
B3: il2ra_site2_2erj_normal_mot_HHH_b2_05722_000000033_0001_22_38_H_._HHH_b2_06475_0001_0000200014_0000001_0_af2pred_0001_af2pred (protein)
chain: SSSSSEAEELFEEAEELVKRGDYEEAALVALLALEAAREEGDEELERKIQELLEELARVLFSSSS
B4: il2ra_site2_2erj_sap_20_mot_HHH_b2_07014_af2_000000149_0001_41_55_H_._HHH_b1_01587_af2_0001_0000100009_0000001_1_0001 (protein)
chain: SSSSDELERLYELAVRILHLLSNGDPEEARELIEEAQELAERLQSENAREILERLEEEARSSSSS
B5: il2ra_site1_3nfp_normal_mot_HHH_b1_03753_af2_000000088_0001_41_54_H_._HHH_b2_08116_af2_0001_0000300023_0000001_0_af2pred_0001_af2pred (protein)
chain: SSSSSDVRKEAVEILRRALELARQGDHEEAEKLLEEALELAKEGNNEQLQRKIEHDLKSASSSSS
B6: il2ra_site1_1z92_normal_mot_3d621733409fa4d2bc95fa1761ba6d8e_0001_af2_000000005_0001_1_12_H_._HHH_b1_00507_af2_0001_0000200017_0000001_0_af2pred_0001_af2pred_1 (protein)
chain: SSSSNAWERTLELAEEALKLIDDPELRREAEELIEELEEALRRGDTKRARELLEEINKILSSSSS
B7: il2ra_site1_1z92_normal_mot_HHH_b1_01245_000000029_0001_23_39_H_._HHH_b2_03879_0001_0000200020_0000001_0 (protein)
chain: SSSSDLELLREADRIVLELVEEFGLSDEQARELARLAIRLAARGVSPEEIEEILRRLAEELSSSS
B8: il2ra_site2_2erj_sap_31_mot_HHH_b1_03572_af2_000000146_0001_41_56_H_._HHH_b1_02912_af2_0001_0000200004_0000001_0_0001 (protein)
chain: SSSSSDKELWERVAELLAEAAHIDDEEEARRVVEEAERLAEENNDETLLRYVEMVLEHLKSSSSS
B9: il2ra_site1_2b5i_normal_mot_22370d59370c406a0c205a431f537cfa_0001_af2_000000141_0001_1_31_H_._HHH_b2_04268_af2_0001_0000600026_0000001_0_af2pred_dldesign_0_af2p … (protein)
chain: SSSSSKEDEKEVSDVIFELVEELGLSDDQYATLSRLAVELLYKGVSVEEIKKRLRELALKLSSSS
B10: il2ra_site1_3nfp_normal_mot_HHH_b1_03125_af2_000000134_0001_40_57_H_._3e5e4a15067cbc373d7c33478bca156f_0001_af2_0001_0000600046_0000001_0 (protein)
chain: NSERFLEDLERSGDPLLEQIAEVLKEAKERGDFEVVQEIFKLIRKLLKGELPPEEVLRLVEELLK
B11: il2ra_site1_1z92_sap_16_mot_HHH_b2_00827_000000099_0001_20_37_H_._HHH_b1_07533_0001_0000500048_0000001_0_0001 (protein)
chain: SVEEELRELIRELGNPELEELAELIIRHLEANPDDKALRFALEQLLRKLKRDPEAAEKIARRLAH
B12: il2ra_site1_2b5i_normal_mot_HHH_b2_04910_000000118_0001_1_19_H_._HHH_b1_06862_af2_0001_0000200038_0000001_0_af2pred_dldesign_0_af2pred (protein)
chain: SSSSNKAEEVRRLFLEADKLFQAGKEEEAKKKLEEALKKAEELGLNLMKKLIELALKQLESSSSS
B13: il2ra_site1_2b5i_normal_mot_0921d739bb7547bb6fa23329820ad62a_0001_000000012_0001_54_65_H_._HHH_b1_08235_af2_0001_0000500032_0000001_0_af2pred_dldesign_0_af2pred (protein)
chain: SSSSSLEQFKRLEEIYKELLELGDDEAAEEVERLYEEFLKTKDPSLLKRAEELLRKAREKSSSSS
B14: il2ra_site1_2b5i_normal_mot_f5ff40796168375b462bec8614a1db4a_0001_1_000000138_0001_53_65_H_._HHH_b2_01775_0001_0000500027_0000001_0_af2pred_dldesign_0_af2pred (protein)
chain: SSSSSSEKRELIQALIDEAKKEEDKRLAKRLLLLALRLARKHNDEELIAEIEALLKELESSSSSS
B15: il2ra_site2_3nfp_normal_mot_ems_3hM_1278_af2_000000151_0001_43_60_H_._HHH_b1_04271_0001_0000300023_0000001_0 (protein)
chain: SSSSDEERVEELIEEAEELLKKGNPEEAKKVLEEASQLAYRARDSELFMLLAELLLLIAQSSSSS
B16: il2ra_site1_2b5i_normal_mot_HHH_b1_01495_af2_000000272_0001_42_56_H_._HHH_b2_02303_af2_0001_0000300027_0000001_0_af2pred_dldesign_0_af2pred (protein)
chain: SSSSSPEYDKVYDLFNKALEAKRAGKKEEAKRLLEEALELAKKIGDKVAVEDLEYLLSKLSSSSS
B17: il2ra_site2_3nfp_normal_mot_HHH_b2_07840_000000026_0001_18_34_H_._HHH_b1_01318_0001_0000300019_0000001_1_af2pred_0001_1_af2pred_swapped (protein)
chain: SSSSSSEEVKELLRRAEELLERGDPHRAFAVLVLAFELADEEGDEELKREIRRVSLEVADSSSSS
B18: il2ra_site1_1z92_sap_15_mot_HHH_b1_08449_000000162_0001_23_39_H_._HHH_b2_04319_af2_0001_0000100006_0000001_0_0001_af2pred_0001_af2pred_1 (protein)
chain: SSSSDERLRRIQHLFEKALRVEDEEEVEELFREAEELAEELGSEELERLLRRALKLRKESHSSSS

What follows are binders tested against il2ra, P01589 (assay: yeast display titration).

Apparent Kd, inactive:
B1 no binding seen, B2 no binding seen, B3 no binding seen, B4 no binding seen, B5 no binding seen, B6 no binding seen, B7 no binding seen, B8 no binding seen, B9 no binding seen, B10 no binding seen, B11 no binding seen, B12 no binding seen, B13 no binding seen, B14 no binding seen, B15 no binding seen, B16 no binding seen, B17 no binding seen, B18 no binding seen
